The values below come from publication PMC5777823 (eLife, 2017).

Sequences of proteins named here, by UniProt entry; tags and fusion partners are left off. A change or cut given only in a name is not applied to a line headed by its entry. A line that says so, or that is headed by a name, gives the form on record, which may keep a tag or linker. Residues count along the entry.
UniProt Q8N0S6: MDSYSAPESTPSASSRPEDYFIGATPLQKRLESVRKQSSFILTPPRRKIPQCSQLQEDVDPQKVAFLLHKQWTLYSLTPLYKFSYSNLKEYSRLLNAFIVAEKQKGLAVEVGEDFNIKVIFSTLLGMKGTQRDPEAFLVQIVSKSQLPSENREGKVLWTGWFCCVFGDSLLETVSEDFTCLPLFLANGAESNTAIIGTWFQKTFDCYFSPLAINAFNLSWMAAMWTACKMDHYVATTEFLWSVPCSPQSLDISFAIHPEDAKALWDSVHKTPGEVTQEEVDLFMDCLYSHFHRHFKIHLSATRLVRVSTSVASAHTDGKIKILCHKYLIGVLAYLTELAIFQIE
CENP-C^2-545 (Q03188, residues 2-545): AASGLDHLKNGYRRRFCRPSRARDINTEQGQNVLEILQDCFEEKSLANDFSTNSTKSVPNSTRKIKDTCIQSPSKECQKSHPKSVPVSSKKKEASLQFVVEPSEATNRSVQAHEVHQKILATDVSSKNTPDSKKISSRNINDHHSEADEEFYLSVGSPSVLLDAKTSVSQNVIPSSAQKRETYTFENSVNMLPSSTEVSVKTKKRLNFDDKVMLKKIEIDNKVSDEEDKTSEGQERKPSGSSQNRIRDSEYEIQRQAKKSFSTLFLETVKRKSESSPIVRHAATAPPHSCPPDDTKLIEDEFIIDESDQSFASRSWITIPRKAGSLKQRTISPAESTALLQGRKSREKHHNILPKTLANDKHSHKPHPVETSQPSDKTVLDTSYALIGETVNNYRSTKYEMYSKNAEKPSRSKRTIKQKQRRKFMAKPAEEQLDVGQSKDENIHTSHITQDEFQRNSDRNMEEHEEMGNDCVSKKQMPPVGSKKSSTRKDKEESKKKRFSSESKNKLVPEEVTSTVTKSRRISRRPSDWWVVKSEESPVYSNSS
CENP-C^2-545-5A (Q03188, form named): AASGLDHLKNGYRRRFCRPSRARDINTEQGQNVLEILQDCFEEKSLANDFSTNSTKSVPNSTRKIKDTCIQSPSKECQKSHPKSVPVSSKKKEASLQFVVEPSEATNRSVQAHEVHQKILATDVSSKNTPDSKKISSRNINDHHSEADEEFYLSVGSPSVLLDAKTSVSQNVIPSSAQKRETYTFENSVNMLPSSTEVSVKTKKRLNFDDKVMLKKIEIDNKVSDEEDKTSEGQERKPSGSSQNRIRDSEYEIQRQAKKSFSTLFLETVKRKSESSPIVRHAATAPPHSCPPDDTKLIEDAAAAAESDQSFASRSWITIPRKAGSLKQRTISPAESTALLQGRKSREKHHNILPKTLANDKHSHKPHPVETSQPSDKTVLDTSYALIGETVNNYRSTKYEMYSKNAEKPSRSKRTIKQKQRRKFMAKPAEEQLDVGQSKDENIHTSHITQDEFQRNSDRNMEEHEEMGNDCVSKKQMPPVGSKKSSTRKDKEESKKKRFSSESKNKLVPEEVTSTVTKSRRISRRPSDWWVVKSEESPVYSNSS
UniProt Q9H3R5: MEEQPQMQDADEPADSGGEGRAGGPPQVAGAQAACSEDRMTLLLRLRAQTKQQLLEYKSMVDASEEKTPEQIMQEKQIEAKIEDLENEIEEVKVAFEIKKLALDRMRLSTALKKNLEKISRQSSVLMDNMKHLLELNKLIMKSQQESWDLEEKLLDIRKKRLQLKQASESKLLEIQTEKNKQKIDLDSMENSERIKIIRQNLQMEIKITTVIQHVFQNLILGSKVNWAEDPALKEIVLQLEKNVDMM

One assay has as its target GST-CENP-L (human) (UniProt Q8N0S6). As to the kind of experiment: co-expression and co-purification; GST-CENP-L co-expressed with CENP-N or CENP-N^230-C in Tnao38 insect cells, isolated on GSH-Sepharose and Superdex 200 in 300 mM NaCl.
Another assay concerns the target CENP-C^2-545 (human) (UniProt Q03188). As to the kind of experiment: SEC; analytical SEC on Superdex 200 5/150 or Superose 6 5/150; 20 mM HEPES pH 7.5, 300 mM NaCl, 2.5% glycerol, 2 mM TCEP, 4°C; proteins mixed at 6 μM, one hour on ice; fractions by SDS-PAGE and Coomassie; both purified. Background: SEC sorts molecules by how far they enter the pores of the column.

A further assay has as its target CENP-HIKM complex (UniProt Q9H3R5). The description is as above.

Results are given in words; binding and its absence hold for the method and conditions named. Some results given as binding are weak or reduced against the parent protein; the word gives no strength.

“CENP-N^230-C (from UniProt Q96H22 230-339) (domain or fragment)”: the binding entry with GST-CENP-L (human) is recorded as “binds”.

In the case of CENP-L (from UniProt Q8N0S6 1-344), the binding entry with CENP-C^2-545 (human) is recorded as “no binding (tested: 6 μM)”.

For the substance “CENP-C^2-545-5A (from UniProt Q03188 2-545) (domain or fragment)”, in the assay with CENP-HIKM complex, the binding result is “binds”.
